These are yes or no findings as the source states them, for the method shown. In cells and extracts the contact can be indirect. Some binding calls cover weakened binding; strength is not graded here.
Target: T1, HIV-2 Viral protein X (Vpx) (HIV-2 (ROD strain-based vector)) (UniProt P06939)
T1 sequence: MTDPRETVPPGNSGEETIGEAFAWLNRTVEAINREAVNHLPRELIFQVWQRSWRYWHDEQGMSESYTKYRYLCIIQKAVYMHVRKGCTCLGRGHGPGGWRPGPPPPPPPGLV
Assay: proximity ligation; HEK293T cells infected with wild-type or Y44A Tat mutant HIV-2 pseudovirions for 1 h at 37 °C, fixed with formaldehyde, permeabilized with 0.5% Triton-X 100; Duolink PLA Kit with anti-Vpx and anti-Tat antibodies at 1:100; fluorescence microscopy

Amino acid sequences for entries named in this document (tags omitted).
UniProt P04605: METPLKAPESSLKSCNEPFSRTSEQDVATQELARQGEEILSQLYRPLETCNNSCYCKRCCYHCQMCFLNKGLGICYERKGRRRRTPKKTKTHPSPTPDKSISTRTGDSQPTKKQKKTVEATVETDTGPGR

For “HIV-2 transactivator protein (Tat), wild-type (from UniProt P04605 1-130)”, the binding was “binds”.

— article PMC7460587
